{
  "sequences": {"note": "The chains behind the UniProt entries cited, without tags or fusion partners. Where a name states a change or a piece, a line headed by the entry shows the natural chain unless it says otherwise.", "UniProt P08173": "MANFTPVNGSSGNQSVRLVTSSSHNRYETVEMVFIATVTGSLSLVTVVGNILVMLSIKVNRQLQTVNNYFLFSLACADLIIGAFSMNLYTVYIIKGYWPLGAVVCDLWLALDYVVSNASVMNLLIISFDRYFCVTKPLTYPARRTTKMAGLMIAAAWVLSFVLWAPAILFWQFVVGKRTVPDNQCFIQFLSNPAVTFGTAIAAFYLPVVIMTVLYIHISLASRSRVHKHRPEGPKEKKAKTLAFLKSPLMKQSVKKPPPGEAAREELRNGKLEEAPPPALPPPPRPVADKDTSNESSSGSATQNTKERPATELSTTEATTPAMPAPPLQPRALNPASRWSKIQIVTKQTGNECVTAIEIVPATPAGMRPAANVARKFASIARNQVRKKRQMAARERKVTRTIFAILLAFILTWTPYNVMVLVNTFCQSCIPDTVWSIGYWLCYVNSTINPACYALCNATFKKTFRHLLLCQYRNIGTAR", "UniProt P01138": "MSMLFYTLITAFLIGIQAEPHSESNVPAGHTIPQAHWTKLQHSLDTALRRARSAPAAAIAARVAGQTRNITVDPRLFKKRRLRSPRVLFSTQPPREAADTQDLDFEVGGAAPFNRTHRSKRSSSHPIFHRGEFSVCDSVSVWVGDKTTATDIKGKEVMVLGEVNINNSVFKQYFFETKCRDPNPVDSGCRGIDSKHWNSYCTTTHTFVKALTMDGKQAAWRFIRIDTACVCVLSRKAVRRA"},
  "source": "paper PMC7782543",
  "key": {"[1]": {"target": "cholinergic receptor muscarinic 4 (human (endogenous in LNCaP, C4-2, PC3 and NCI-H660)) (UniProt P08173)", "test": "co-IP; IP of endogenous NGF or of endogenous CHRM4 from cell lysates, Western blot of CHRM4 and NGF; LNCaP and C4-2 cells cultured in CSS-containing medium for 1 week (with or without stable NGF knockdown); PC3 and NCI-H660 cells stably expressing non-target control or NGF shRNA"}, "[2]": {"target": "in vitro transcription/translation-synthesized Flag-tag CHRM4 protein (UniProt P08173)", "test": "co-IP; mixture of recombinant NGF protein and in vitro transcription/translation-synthesized Flag-CHRM4; IP of Flag, Western blot of CHRM4 and NGF; control IgG IP as negative control; only the binder purified"}, "recombinant NGF protein": {"target": "recombinant NGF protein (UniProt P01138)", "test": "co-IP; mixture of recombinant NGF protein and in vitro transcription/translation-synthesized Flag-CHRM4; IP of the NGF, Western blot of CHRM4 and NGF; control IgG IP as negative control; only the target purified"}, "[3]": {"target": "Nerve growth factor (human (endogenous in LNCaP, C4-2, PC3 and NCI-H660)) (UniProt P01138)", "test": "co-IP; IP of endogenous NGF or of endogenous CHRM4 from cell lysates, Western blot of CHRM4 and NGF; LNCaP and C4-2 cells cultured in CSS-containing medium for 1 week (with or without stable NGF knockdown); PC3 and NCI-H660 cells stably expressing non-target control or NGF shRNA"}},
  "note": "These are yes or no findings as the source states them, for the method shown. Binding seen in cells or lysates may run through a third protein. Binding can be weak; no strength is given.",
  "data": [
    {"substance": "Nerve growth factor (from UniProt P01138) (ligand)", "values": [
      {"measurement": "binding", "setting": "[1]", "value": "binds"}
    ]},
    {"substance": "recombinant NGF protein (from UniProt P01138) (ligand)", "values": [
      {"measurement": "binding", "setting": "[2]", "value": "binds"}
    ]},
    {"substance": "in vitro transcription/translation-synthesized Flag-tag CHRM4 protein (from UniProt P08173 1-479) (receptor)", "values": [
      {"measurement": "binding", "setting": "recombinant NGF protein", "value": "binds"}
    ]},
    {"substance": "cholinergic receptor muscarinic 4 (from UniProt P08173 1-479)", "values": [
      {"measurement": "binding", "setting": "[3]", "value": "binds"}
    ]}
  ]
}
